Data on 42 sequences can be found in PMC7819943, “Rice protein-binding microarrays: a tool to detect cis-acting elements near promoter regions in rice”.

Amino acid sequences for entries named in this document (tags omitted).
UniProt Q0JBA9, entry or part of it: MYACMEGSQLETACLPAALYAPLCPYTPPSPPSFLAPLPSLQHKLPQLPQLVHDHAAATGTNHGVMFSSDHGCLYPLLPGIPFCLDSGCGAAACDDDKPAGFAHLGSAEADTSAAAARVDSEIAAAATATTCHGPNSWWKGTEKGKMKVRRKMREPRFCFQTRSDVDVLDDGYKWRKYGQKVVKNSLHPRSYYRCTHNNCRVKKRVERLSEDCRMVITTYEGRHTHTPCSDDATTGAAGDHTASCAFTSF

This is one part of the list.

The experiment addresses OsWRKY34 (Oryza sativa, UniProt Q0JBA9 1-250). Put plainly: protein-binding microarray (RPBM); PBS, 2% BSA, 51.3 ng/ul salmon testes DNA, 50 uM zinc acetate, 200 nM TF, 25 C, 1 h; high values mean tight binding. Particulars: protein: recombinant; tags: N-terminal polyhistidine and DsRed monomer fusion (pET32a); label: CyDye5-dUTP incorporated in the synthesized complementary strand; 3' TTTTT single-stranded linker to array surface; dsDNA, one strand shown. A digest of the protocol:
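Using Ni–NTA, transcription factors fused N-terminally to polyhistidine and DsRed were purified after expression in E. coli BL21-CodonPlus. These were incubated at 200 nM with a blocked, double-stranded custom Agilent array for 1 h at 25 °C in a buffer containing 50 µM zinc acetate, and the array was washed. The binding signal is per-feature fluorescence intensity (arbitrary units) on an Axon 4000B scanner.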
With “GTGCGCGTTCTTGGTGTTATGGAGGCGGGTCTCGGCGGGGCGGAGTCACCTAGTGCAG”, the binding signal was 17600 fluorescence intensity (a.u.).

Take “GGTCATTCCTATGTCTTTTTTATTTTGTAATCATTTGTTTCGGAGTCACCTAGTGCAG”: the binding signal is 10900 fluorescence intensity (a.u.).

“TTCTCTCGTACGTAAGTTTCTCGAAATGCTATGCGCTTTCCGGAGTCACCTAGTGCAG”: the binding signal was 10300 fluorescence intensity (a.u.).

As to “GATTAGTAGTAGTAGTACTACTCCTCGTCGTCGTCGTCCTCGGAGTCACCTAGTGCAG”, the binding signal was 8380 fluorescence intensity (a.u.).

On to “AAATATTATATTTATAAAAACAATTAGCTACCAAGACTAACGGAGTCACCTAGTGCAG”, for which the binding signal is 13000 fluorescence intensity (a.u.).

As to “GGCAGAACTCCAAACTTTGGCAATTTTCCCTATTCTATTCCGGAGTCACCTAGTGCAG”, the binding signal was 9500 fluorescence intensity (a.u.).

With “TCACCACCAGGTTGACCATTCCCACACACCAGGTTCTTGACGGAGTCACCTAGTGCAG”, the binding signal was 8900 fluorescence intensity (a.u.).

On to “ATCCCGCGTCGACGTAGAAAATATATTTGTTGATTTCTCTCGGAGTCACCTAGTGCAG”, for which the binding signal is 8810 fluorescence intensity (a.u.).

On to “ACGGTACTACACATCTAATACTGGATTGACTTTTTATTCACGGAGTCACCTAGTGCAG”, for which the binding signal is 9620 fluorescence intensity (a.u.).

With “TCATGATTAGTACATTTTTCTTGCCACAACTTGTCATTCACGGAGTCACCTAGTGCAG”, the binding signal was 8500 fluorescence intensity (a.u.).

On to “GGCCGACCCCTTTGCCTCCTTAGGCCTTCTGCCCTAGTTCCGGAGTCACCTAGTGCAG”, for which the binding signal was 9950 fluorescence intensity (a.u.).

Regarding “AAGCCTCATTTGACTTTTATCTTTGCACATTTTAATTGTTCGGAGTCACCTAGTGCAG”, the binding signal was 10400 fluorescence intensity (a.u.).

On to “TCACCAATTGGTTTATGCTCACTCCACCACTGTTAATTATCGGAGTCACCTAGTGCAG”, for which the binding signal is 9080 fluorescence intensity (a.u.).

With “TGTTTTTCCTGTGTTTTGCAATCCTCTGGTTTACAATTGTCGGAGTCACCTAGTGCAG”, the binding signal is 13500 fluorescence intensity (a.u.).

As for “TGCGCGTTCTACTCTGGTCTCCGGTGGCCTCTTGGCCGGACGGAGTCACCTAGTGCAG”, the binding signal was 8210 fluorescence intensity (a.u.).

With “GGTTTCCATGTCCAACGTTTGATCATCCATCTTATATGAACGGAGTCACCTAGTGCAG”, the binding signal is 11100 fluorescence intensity (a.u.).

Consider “GGGTCTAACTCTAAGAGTATTGGGTACCCCTTATCGTTAACGGAGTCACCTAGTGCAG”, for which the binding signal is 8360 fluorescence intensity (a.u.).

Consider “TGTATTTGAGCTGGCAAGTTTGCCCATGGGTTGTTGAAATCGGAGTCACCTAGTGCAG”, for which the binding signal was 8800 fluorescence intensity (a.u.).

Take “GTTTTACTAGTGAATTTTCTTTTCTTTGCTTCGTTTAATGCGGAGTCACCTAGTGCAG”: the binding signal was 8930 fluorescence intensity (a.u.).

Turning to “CATCATCGTGCACCGCGCCGCCCTCTTCGATCGCCCAGACCGGAGTCACCTAGTGCAG”, the binding signal was 10900 fluorescence intensity (a.u.).

For the sequence “ACAGCAATCCCATCCTATCTCCACCGTGATTTTCGCTCCCCGGAGTCACCTAGTGCAG”, the binding signal was 8670 fluorescence intensity (a.u.).

Turning to “GCGCGGTGCTTTCTTGCTTATTTTTATACTAGTACTACTACGGAGTCACCTAGTGCAG”, the binding signal was 9710 fluorescence intensity (a.u.).

For the sequence “TGCCACATCCTCGTTTCGTCTCATAGGAATTTCTATGCTACGGAGTCACCTAGTGCAG”, the binding signal is 8100 fluorescence intensity (a.u.).

“AATATTCGCAAAATAACCTCTTATTTGGTTTCTATTTTATCGGAGTCACCTAGTGCAG”: the binding signal was 8480 fluorescence intensity (a.u.).

“CCGTTTCCCGGGCTTTTTTTCCATTTCCCGTCGTCTCCACCGGAGTCACCTAGTGCAG”: the binding signal was 9840 fluorescence intensity (a.u.).

Turning to “GCACAGAGCATGCAGCATCTGACGCGCCATCCCAACCATGCGGAGTCACCTAGTGCAG”, the binding signal is 8310 fluorescence intensity (a.u.).

Regarding “CGACGAGCGAGAGGTAGGTGAGAGAGAGACGGGCGGCGAACGGAGTCACCTAGTGCAG”, the binding signal was 65100 fluorescence intensity (a.u.).

On to “CGCAACCCTTTCTTCCTCCTCTGTCGCTCTCTCTCTCTCTCGGAGTCACCTAGTGCAG”, for which the binding signal was 9100 fluorescence intensity (a.u.).

As to “ATGTTATGAATTGATTGGGTTAGGGAGTTTTCTTCTGGTCCGGAGTCACCTAGTGCAG”, the binding signal is 9450 fluorescence intensity (a.u.).

On to “TGGGAATTTAACTTTGCCTCTCTTTTTTTTTTCAATAGTCCGGAGTCACCTAGTGCAG”, for which the binding signal is 8170 fluorescence intensity (a.u.).

For “CTAGATTTACTATTTTTGGTGTATTTGTTTTTTTCATTTACGGAGTCACCTAGTGCAG”, the binding signal is 8340 fluorescence intensity (a.u.).

As for “CCTAGCCCTAATTGATCCTTGCCTCGATGTTTTCCCTCCGCGGAGTCACCTAGTGCAG”, the binding signal is 10100 fluorescence intensity (a.u.).

For the sequence “AGGTAGTTTTTAATTCGTCTCAAACATCCTGACCTTTTTCCGGAGTCACCTAGTGCAG”, the binding signal was 9440 fluorescence intensity (a.u.).

Take “GATGGATTTGTGATTTCGTGATTTAGTGGATTTGTGATTCCGGAGTCACCTAGTGCAG”: the binding signal was 9230 fluorescence intensity (a.u.).

In the case of “GGGGCTTGATTTATTGGGGTTTTGATAGTTGAGAACTTGACGGAGTCACCTAGTGCAG”, the binding signal was 12800 fluorescence intensity (a.u.).

Consider “TGTCGTCGTCGCCGCCGCCGCCGCCTCCCGGGCCTCTCCGCGGAGTCACCTAGTGCAG”, for which the binding signal was 8120 fluorescence intensity (a.u.).

“ATGTACAAACTTCCATGGCCTCGCGGTCGCCGACCAACAACGGAGTCACCTAGTGCAG”: the binding signal was 10000 fluorescence intensity (a.u.).

With “TCCAAAGTACTCTAAGCACAACTTTTCGCTTTTTATATTTCGGAGTCACCTAGTGCAG”, the binding signal is 10700 fluorescence intensity (a.u.).

As for “GCAATTATTAATGTACCGCTCCGTTTTCATTTTTGGGTTGCGGAGTCACCTAGTGCAG”, the binding signal is 8630 fluorescence intensity (a.u.).

For the sequence “TGTGCCGCCGCCGCCGCCTCACATCCACTCCACTCTCTCTCGGAGTCACCTAGTGCAG”, the binding signal is 8640 fluorescence intensity (a.u.).

Turning to “CCCTAGCCCTCGCGCCGCTCTTCTCCTACCCGGCCCACGCCGGAGTCACCTAGTGCAG”, the binding signal is 12600 fluorescence intensity (a.u.).

In the case of “TTGACATTTATAAAAGAGAATTTGTTGGTGTTATGTTGACCGGAGTCACCTAGTGCAG”, the binding signal is 8080 fluorescence intensity (a.u.).
